From patent US20110189290A1
No constants are given. Whether binding was seen depends on the method and setting. Some results given as binding are weak or reduced against the parent protein; the word gives no strength.

Chains of the proteins cited; added tags and fusions are not shown. Residues count along the entry.
UniProt P05067, residues 672-713: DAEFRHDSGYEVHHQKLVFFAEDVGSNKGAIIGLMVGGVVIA

Molecular target: Aβ-42 (UniProt P05067)
Test: ELISA: 200 pg peptide coated on plate, 10 ng Aβ-42 added, detected with biotin-labelled 4G8 antibody, absorbance at 620 nm

**Q.** With LPFFD as the binder, how does the binding read?
**A.** The binding was “binds”.
